Test results published in the supplement of paper PMC12819154, “High-throughput peptide-centric local stability assay extends protein–ligand identification to membrane proteins, tissues and bacteria” (Nature Structural & Molecular Biology, 2025).
The list shows a part of the results. Small differences around the control level are noise.

By UniProt entry, the sequences of proteins in these tests, tags left out. Where a name states a change or a piece, a line headed by the entry shows the natural chain unless it says otherwise.
UniProt Q16875: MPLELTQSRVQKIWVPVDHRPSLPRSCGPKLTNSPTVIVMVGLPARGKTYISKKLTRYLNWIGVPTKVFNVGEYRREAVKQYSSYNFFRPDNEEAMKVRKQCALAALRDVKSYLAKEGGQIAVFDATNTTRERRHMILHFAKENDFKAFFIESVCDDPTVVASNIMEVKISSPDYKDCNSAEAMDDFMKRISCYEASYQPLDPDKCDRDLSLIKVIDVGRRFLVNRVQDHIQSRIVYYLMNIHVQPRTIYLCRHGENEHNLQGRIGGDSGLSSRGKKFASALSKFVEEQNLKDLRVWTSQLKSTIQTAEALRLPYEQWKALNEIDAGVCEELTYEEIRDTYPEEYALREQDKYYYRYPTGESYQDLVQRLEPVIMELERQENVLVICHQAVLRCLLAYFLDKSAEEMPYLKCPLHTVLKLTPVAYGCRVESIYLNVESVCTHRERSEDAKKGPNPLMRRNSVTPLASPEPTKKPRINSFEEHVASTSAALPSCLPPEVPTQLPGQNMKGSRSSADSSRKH
UniProt Q16659, whole entry: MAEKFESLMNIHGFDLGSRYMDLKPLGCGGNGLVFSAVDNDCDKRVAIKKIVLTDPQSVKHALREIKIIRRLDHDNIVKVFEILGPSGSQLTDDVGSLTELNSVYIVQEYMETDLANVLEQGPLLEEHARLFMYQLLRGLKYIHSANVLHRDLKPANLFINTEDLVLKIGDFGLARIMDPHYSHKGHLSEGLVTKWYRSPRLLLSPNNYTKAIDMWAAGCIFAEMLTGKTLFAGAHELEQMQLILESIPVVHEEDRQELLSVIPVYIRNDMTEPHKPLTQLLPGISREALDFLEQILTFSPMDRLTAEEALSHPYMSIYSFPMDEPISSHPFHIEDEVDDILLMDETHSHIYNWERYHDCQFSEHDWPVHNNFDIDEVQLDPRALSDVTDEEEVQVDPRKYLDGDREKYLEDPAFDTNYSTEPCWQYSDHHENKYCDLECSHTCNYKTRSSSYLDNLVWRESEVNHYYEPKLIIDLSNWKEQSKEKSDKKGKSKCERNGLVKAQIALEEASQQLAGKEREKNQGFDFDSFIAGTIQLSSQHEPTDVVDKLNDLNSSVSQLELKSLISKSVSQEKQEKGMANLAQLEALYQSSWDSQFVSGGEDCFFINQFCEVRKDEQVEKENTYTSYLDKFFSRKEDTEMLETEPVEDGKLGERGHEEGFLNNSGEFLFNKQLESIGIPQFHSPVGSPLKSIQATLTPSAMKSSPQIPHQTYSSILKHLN
UniProt Q15173: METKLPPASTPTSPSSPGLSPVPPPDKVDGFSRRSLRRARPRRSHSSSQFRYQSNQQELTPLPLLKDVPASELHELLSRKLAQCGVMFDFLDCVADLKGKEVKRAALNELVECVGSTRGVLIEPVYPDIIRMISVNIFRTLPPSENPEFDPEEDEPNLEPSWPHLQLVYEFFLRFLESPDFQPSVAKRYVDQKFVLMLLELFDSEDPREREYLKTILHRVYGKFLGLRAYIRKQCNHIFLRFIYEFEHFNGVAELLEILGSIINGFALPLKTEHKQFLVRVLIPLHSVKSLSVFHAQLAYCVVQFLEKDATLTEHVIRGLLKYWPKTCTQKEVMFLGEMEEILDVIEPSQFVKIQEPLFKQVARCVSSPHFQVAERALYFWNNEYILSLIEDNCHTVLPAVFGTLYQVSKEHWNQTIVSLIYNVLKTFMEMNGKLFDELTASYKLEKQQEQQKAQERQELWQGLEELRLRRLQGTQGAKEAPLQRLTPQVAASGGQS
UniProt Q15417: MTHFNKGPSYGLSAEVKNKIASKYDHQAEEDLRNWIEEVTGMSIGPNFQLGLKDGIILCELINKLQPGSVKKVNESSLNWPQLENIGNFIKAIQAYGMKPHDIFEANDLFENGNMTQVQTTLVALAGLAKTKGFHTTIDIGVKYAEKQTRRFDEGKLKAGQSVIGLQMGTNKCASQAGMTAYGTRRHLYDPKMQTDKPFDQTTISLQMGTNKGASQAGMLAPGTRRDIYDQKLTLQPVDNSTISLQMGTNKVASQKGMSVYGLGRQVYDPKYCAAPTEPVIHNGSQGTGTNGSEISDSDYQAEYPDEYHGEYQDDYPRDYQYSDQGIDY
UniProt Q16531, whole entry: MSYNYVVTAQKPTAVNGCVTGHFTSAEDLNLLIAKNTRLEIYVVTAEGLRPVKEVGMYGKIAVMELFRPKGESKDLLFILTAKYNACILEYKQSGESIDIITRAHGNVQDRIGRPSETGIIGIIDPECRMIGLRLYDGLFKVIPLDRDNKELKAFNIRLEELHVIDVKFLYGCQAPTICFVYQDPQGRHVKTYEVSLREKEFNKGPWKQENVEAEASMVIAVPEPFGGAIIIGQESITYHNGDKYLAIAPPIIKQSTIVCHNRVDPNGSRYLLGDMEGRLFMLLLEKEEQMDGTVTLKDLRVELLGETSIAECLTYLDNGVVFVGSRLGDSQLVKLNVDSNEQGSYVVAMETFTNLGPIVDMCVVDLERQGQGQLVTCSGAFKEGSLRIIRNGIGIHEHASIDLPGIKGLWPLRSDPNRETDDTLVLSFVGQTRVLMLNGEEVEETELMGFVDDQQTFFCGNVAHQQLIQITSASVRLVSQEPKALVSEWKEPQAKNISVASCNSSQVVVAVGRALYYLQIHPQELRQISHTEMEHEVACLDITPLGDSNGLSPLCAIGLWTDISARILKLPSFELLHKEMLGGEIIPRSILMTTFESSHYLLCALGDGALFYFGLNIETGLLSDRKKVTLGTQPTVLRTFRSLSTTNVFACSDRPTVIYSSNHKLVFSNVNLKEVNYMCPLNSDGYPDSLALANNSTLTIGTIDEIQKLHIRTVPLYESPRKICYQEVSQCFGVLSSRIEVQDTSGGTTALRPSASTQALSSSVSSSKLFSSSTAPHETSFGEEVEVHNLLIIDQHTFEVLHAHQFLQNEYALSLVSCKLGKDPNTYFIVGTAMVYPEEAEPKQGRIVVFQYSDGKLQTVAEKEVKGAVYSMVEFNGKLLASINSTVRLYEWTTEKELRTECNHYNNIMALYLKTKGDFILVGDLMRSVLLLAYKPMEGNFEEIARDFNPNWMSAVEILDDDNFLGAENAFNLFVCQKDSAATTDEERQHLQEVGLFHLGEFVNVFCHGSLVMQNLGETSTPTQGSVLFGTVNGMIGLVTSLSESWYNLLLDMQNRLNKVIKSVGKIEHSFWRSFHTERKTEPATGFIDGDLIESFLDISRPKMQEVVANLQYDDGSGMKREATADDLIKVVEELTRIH
UniProt Q2TB18: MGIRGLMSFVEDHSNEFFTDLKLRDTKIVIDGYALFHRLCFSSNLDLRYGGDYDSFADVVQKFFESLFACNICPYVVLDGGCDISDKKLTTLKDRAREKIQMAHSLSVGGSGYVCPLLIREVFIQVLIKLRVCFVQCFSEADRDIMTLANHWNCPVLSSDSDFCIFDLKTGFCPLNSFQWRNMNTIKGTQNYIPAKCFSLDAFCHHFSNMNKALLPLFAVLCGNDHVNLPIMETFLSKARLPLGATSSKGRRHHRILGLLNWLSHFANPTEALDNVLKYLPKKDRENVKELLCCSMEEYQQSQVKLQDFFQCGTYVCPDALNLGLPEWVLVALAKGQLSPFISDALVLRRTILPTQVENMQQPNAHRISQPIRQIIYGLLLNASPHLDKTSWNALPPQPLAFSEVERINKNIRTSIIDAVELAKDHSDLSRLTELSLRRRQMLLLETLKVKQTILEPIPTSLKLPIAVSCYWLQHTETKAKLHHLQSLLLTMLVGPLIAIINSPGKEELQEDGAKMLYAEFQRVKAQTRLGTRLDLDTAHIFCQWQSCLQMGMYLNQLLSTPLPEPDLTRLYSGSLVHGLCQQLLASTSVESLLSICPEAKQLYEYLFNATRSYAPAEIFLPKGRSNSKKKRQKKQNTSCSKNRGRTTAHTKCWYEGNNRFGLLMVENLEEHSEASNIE
UniProt Q15631: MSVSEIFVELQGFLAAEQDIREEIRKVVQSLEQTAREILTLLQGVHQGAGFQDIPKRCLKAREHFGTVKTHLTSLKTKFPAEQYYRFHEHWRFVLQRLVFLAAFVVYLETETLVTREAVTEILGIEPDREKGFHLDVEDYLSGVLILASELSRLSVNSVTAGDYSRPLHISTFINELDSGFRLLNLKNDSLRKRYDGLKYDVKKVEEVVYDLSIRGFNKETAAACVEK
UniProt Q2KJY2: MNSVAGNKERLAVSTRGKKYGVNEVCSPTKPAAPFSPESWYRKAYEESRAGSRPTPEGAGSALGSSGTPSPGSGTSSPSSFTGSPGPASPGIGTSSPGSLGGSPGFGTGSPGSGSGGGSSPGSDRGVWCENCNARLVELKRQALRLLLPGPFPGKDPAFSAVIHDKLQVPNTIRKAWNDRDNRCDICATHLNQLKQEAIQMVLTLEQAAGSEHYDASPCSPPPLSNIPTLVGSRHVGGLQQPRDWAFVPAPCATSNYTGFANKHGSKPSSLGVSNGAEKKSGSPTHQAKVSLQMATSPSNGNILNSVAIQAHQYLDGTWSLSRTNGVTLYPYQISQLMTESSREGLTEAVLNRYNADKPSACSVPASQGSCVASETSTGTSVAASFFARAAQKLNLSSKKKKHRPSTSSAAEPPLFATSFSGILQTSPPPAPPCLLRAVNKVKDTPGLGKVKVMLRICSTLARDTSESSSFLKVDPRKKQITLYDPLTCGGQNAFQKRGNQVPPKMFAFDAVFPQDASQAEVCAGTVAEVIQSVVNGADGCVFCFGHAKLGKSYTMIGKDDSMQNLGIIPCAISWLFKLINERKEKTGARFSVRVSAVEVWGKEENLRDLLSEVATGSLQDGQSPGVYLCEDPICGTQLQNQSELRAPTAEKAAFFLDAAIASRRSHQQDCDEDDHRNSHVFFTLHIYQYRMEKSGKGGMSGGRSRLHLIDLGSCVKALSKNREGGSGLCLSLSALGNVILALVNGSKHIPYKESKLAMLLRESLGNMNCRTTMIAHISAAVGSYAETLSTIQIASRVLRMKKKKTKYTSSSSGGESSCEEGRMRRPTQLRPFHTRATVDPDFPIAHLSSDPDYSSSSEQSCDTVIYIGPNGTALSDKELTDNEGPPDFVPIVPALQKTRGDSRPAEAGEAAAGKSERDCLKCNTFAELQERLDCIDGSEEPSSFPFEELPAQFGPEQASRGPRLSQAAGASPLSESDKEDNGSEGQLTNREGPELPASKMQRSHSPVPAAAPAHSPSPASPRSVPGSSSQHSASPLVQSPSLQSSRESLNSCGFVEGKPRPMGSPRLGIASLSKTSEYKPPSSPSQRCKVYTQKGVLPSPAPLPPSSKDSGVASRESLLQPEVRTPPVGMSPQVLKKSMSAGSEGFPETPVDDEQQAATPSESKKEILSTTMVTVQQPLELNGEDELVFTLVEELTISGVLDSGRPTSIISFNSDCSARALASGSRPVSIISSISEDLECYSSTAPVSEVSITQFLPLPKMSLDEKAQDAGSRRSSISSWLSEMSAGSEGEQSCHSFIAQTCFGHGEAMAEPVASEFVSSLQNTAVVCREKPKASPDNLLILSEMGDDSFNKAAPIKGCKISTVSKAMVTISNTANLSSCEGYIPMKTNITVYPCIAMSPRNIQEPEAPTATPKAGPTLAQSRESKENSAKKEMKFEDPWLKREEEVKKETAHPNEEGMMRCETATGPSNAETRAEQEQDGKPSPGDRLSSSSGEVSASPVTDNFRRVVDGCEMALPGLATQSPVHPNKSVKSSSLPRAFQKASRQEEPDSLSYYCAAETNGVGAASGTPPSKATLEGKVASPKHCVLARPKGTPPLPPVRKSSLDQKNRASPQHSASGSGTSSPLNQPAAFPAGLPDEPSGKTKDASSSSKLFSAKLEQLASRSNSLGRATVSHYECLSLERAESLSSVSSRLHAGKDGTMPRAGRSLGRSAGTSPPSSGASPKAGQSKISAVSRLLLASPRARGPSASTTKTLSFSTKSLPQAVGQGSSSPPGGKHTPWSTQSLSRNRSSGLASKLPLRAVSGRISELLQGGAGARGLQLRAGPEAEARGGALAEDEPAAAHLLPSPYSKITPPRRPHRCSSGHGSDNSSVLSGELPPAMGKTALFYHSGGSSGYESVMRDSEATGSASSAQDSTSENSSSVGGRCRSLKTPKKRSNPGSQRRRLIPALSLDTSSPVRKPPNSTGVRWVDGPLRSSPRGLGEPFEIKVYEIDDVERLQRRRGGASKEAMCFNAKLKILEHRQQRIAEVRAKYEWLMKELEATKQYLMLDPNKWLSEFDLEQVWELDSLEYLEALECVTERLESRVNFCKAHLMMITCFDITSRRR

Each target was assayed with Cc1nc(Nc2ncc(C(=O)Nc3c(C)cccc3Cl)s2)cc(N2CCN(CCO)CC2)n1 [dasatinib] (assay: log2 fold change of tryptic peptide abundance, ligand vs vehicle (limited proteolysis) (log2 ratio); higher = more trypsin-susceptible (destabilized)). Conditions: ligand concentration: 5 uM; sample: K562 cleared lysate.
In the case of “PFKFB3 (peptide sequence: QENVLVICHQAVLR, peptide start residue: 380) (UniProt Q16875)”, the log2 fold change was -0.744. For “UniProt Q16659 (peptide sequence: AQIALEEASQQLAGKER, peptide start residue: 503)”, the log2 fold change was -0.578. “PPP2R5B (peptide sequence: CVSSPHFQVAER, peptide start residue: 410) (UniProt Q15173)” showed a log2 fold change of 0.125. With “CNN3 (peptide sequence: GPSYGLSAEVK, peptide start residue: 9) (UniProt Q15417)” the log2 fold change was 0.0554. Target “DDB1 (peptide sequence: TVPLYESPRK, peptide start residue: 714) (UniProt Q16531)” has a log2 fold change of 0.231. “ASTE1 (peptide sequence: TILPTQVENMQQPNAHR, peptide start residue: 351) (UniProt Q2TB18)” showed a log2 fold change of -0.662. Work on “UniProt Q15631 (peptide sequence: YDGLKYDVK, peptide start residue: 195)” yielded a log2 fold change of 0.268. “UniProt Q2KJY2 (peptide sequence: SSGLASK, peptide start residue: 1792)” was tested, and the log2 fold change was 0.0209.
